No constants are given. Whether binding was seen depends on the method and setting. Binding seen in cells or lysates may run through a third protein.
Biological target: human SOD1 G93A mutant protein, transgene product (human) (UniProt P00441)
Experiment: co-IP; spinal cord lysates (PBS, protease inhibitors, sonicated) of WT, hHSJ1a, G93A and DBLE male mice at 120 days; reciprocal precipitation with anti-SOD1 (C4F6) or anti-HSJ1 (S653) on protein-G Dynabeads, control IgG; Western blot for HSJ1 and SOD1

By UniProt entry, the sequences of proteins in these tests, tags left out. Where a name states a change or a piece, a line headed by the entry shows the natural chain unless it says otherwise. Chains listed by the source or under a name are the forms on record and can include a tag or linker.
UniProt P00441: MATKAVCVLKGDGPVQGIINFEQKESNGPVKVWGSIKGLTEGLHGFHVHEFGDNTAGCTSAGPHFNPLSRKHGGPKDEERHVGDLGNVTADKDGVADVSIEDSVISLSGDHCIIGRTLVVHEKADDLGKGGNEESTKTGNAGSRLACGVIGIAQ
human SOD1 G93A mutant protein, transgene product (P00441, form named): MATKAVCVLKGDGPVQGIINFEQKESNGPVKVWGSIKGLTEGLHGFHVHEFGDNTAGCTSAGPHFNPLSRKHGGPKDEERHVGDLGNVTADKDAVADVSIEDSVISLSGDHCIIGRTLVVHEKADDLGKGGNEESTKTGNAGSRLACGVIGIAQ
UniProt Q9QYI5: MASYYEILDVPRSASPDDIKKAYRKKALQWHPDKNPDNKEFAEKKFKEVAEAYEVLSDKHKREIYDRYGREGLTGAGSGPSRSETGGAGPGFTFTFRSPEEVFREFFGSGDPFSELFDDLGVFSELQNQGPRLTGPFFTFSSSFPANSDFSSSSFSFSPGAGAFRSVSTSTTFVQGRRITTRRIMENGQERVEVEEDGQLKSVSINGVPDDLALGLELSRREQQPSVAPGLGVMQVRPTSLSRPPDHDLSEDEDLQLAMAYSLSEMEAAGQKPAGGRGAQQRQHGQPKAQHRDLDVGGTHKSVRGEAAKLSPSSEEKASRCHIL

binding: no binding
Substance: endogenous mouse HSJ1a (from UniProt Q9QYI5)
